These are yes or no findings as the source states them, for the method shown. In cells and extracts the contact can be indirect. A result given as binding can be weak or reduced; the word gives no strength. Sequences can lack the tags named with a protein.
Target: myc-DDK tagged rat TMEM16F (rTMEM16F) (rat)
Assay: co-IP; lysate of 16F-null cells co-transfected with myc tagged rP2X7 and myc-DDK tagged rTMEM16F at a cDNA ratio of 1:0.05 (5 ug and 0.25 ug); lysis in 20 mM HEPES, 100 mM NaCl, 1% Triton-X, 5 mM EDTA at 4 °C; precipitated with anti-FLAG antibody and Protein G Sepharose; washes with 500 mM NaCl; Western blot with anti-c-myc antibody

B1: myc tagged rat P2X7 receptor (rP2X7) (receptor, UniProt Q64663 1-595)
chain: MPACCSWNDVFQYETNKVTRIQSVNYGTIKWILHMTVFSYVSFALMSDKLYQRKEPLISSVHTKVKGVAEVTENVTEGGVTKLVHGIFDTADYTLPLQGNSFFVMTNYLKSEGQEQKLCPEYPSRGKQCHSDQGCIKGWMDPQSKGIQTGRCIPYDQKRKTCEIFAWCPAEEGKEAPRPALLRSAENFTVLIKNNIDFPGHNYTTRNILPGMNISCTFHKTWNPQCPIFRLGDIFQEIGENFTEVAVQGGIMGIEIYWDCNLDSWSHRCQPKYSFRRLDDKYTNESLFPGYNFRYAKYYKENGMEKRTLIKAFGVRFDILVFGTGGKFDIIQLVVYIGSTLSYFGLATVCIDLIINTYASTCCRSRVYPSCKCCEPCAVNEYYYRKKCEPIVEPKPTLKYVSFVDEPHIWMVDQQLLGKSLQDVKGQEVPRPQTDFLELSRLSLSLHHSPPIPGQPEEMQLLQIEAVPRSRDSPDWCQCGNCLPSQLPENRRALEELCCRRKPGQCITTSELFSKIVLSREALQLLLLYQEPLLALEGEAINSKLRHCAYRSYATWRFVSQDMADFAILPSCCRWKIRKEFPKTQGQYSGFKYPY
For B1, the binding was “binds”.
